From article PMC11758394, “VCP downstream metabolite glycerol-3-phosphate (G3P) inhibits CD8^+T cells function in the HCC microenvironment” (Signal Transduction and Targeted Therapy, 2025)
Results are given in words; binding and its absence hold for the method and conditions named. For part of these data: In cells and extracts the contact can be indirect. Some binding calls cover weakened binding; strength is not graded here. For part of these data: Sequences can lack the tags named with a protein. Values belong to the molecule of their own block, whether it stands above or below them.

The chains behind the UniProt entries cited, without tags or fusion partners. A line that says so, or that is headed by a name, gives the form on record, which may keep a tag or linker. Residues count along the entry.
FLAG-tagged D1 domain of VCP (208-470 aa) (P55072, residues 208-470): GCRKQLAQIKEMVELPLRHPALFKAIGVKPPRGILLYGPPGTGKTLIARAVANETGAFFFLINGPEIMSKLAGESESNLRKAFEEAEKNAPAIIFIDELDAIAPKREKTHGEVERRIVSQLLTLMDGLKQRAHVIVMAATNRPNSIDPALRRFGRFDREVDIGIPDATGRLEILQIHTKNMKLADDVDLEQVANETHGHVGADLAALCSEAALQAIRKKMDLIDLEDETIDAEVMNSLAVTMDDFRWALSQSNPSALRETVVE

Legend:
[1] = molecular target: T1, HA-tagged GPD1L fragment 192-351 aa (UniProt Q8N335); test: co-IP; HCCLM3 or HEK293T (293T) cells co-transfected with FLAG- and HA-tagged plasmids for 48 h; lysis in 20 mM HEPES pH 7.4, 150 mM NaCl, 1 mM EDTA, 0.1% Triton X-100; FLAG or HA magnetic beads, 4 °C, 4 h; immunoblot
T1 sequence: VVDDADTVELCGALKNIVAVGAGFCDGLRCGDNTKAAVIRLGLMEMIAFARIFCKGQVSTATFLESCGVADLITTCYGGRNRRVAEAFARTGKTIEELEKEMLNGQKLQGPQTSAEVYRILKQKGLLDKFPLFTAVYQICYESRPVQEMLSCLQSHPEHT

[2] = molecular target: FLAG-VCP (valosin-containing protein) (UniProt P55072); test: as above
[3] = molecular target: FLAG-tagged D1 domain of VCP (208-470 aa) (UniProt P55072); test: as above
[4] = molecular target: GST-VCP fusion protein (UniProt P55072); test: pull-down; GST pull-down: GST fusion protein (10 μg) and His fusion protein (10-20 μg) mixed in 50 mM Tris-HCl pH 7.4, 150 mM NaCl, 1 mM EDTA, 5% glycerol, 0.1% Triton X-100, 1 mM DTT, 4 °C, 4 h; immunoblot; both purified
[5] = molecular target: HA-VCP (UniProt P55072); test: co-IP; HCCLM3 or HEK293T (293T) cells co-transfected with FLAG- and HA-tagged plasmids for 48 h; lysis in 20 mM HEPES pH 7.4, 150 mM NaCl, 1 mM EDTA, 0.1% Triton X-100; FLAG or HA magnetic beads, 4 °C, 4 h; immunoblot
[6] = molecular target: endogenous VCP (human (endogenous in HCCLM3)) (UniProt P55072); test: co-IP; HCCLM3 cell lysates immunoprecipitated with control IgG or anti-VCP antibodies; immunoprecipitates blotted

- binding [1]: binds
Molecule: FLAG-VCP (valosin-containing protein) (from UniProt P55072 1-806)

- binding [2]: binds
- binding [3]: binds
B1: HA-GPD1L (glycerol-3-phosphate dehydrogenase 1-like protein) (protein, UniProt Q8N335 1-351)
chain: MAAAPLKVCIVGSGNWGSAVAKIIGNNVKKLQKFASTVKMWVFEETVNGRKLTDIINNDHENVKYLPGHKLPENVVAMSNLSEAVQDADLLVFVIPHQFIHRICDEITGRVPKKALGITLIKGIDEGPEGLKLISDIIREKMGIDISVLMGANIANEVAAEKFCETTIGSKVMENGLLFKELLQTPNFRITVVDDADTVELCGALKNIVAVGAGFCDGLRCGDNTKAAVIRLGLMEMIAFARIFCKGQVSTATFLESCGVADLITTCYGGRNRRVAEAFARTGKTIEELEKEMLNGQKLQGPQTSAEVYRILKQKGLLDKFPLFTAVYQICYESRPVQEMLSCLQSHPEHT

- binding [4]: binds
B2: His-GPD1L protein (protein, UniProt Q8N335 1-351)
chain: MAAAPLKVCIVGSGNWGSAVAKIIGNNVKKLQKFASTVKMWVFEETVNGRKLTDIINNDHENVKYLPGHKLPENVVAMSNLSEAVQDADLLVFVIPHQFIHRICDEITGRVPKKALGITLIKGIDEGPEGLKLISDIIREKMGIDISVLMGANIANEVAAEKFCETTIGSKVMENGLLFKELLQTPNFRITVVDDADTVELCGALKNIVAVGAGFCDGLRCGDNTKAAVIRLGLMEMIAFARIFCKGQVSTATFLESCGVADLITTCYGGRNRRVAEAFARTGKTIEELEKEMLNGQKLQGPQTSAEVYRILKQKGLLDKFPLFTAVYQICYESRPVQEMLSCLQSHPEHT

- binding [5]: binds
B3: FLAG-GPD1L (protein, UniProt Q8N335 1-351)
chain: MAAAPLKVCIVGSGNWGSAVAKIIGNNVKKLQKFASTVKMWVFEETVNGRKLTDIINNDHENVKYLPGHKLPENVVAMSNLSEAVQDADLLVFVIPHQFIHRICDEITGRVPKKALGITLIKGIDEGPEGLKLISDIIREKMGIDISVLMGANIANEVAAEKFCETTIGSKVMENGLLFKELLQTPNFRITVVDDADTVELCGALKNIVAVGAGFCDGLRCGDNTKAAVIRLGLMEMIAFARIFCKGQVSTATFLESCGVADLITTCYGGRNRRVAEAFARTGKTIEELEKEMLNGQKLQGPQTSAEVYRILKQKGLLDKFPLFTAVYQICYESRPVQEMLSCLQSHPEHT

- binding [6]: binds
B4: endogenous GPD1L (protein, UniProt Q8N335 1-351)
chain: MAAAPLKVCIVGSGNWGSAVAKIIGNNVKKLQKFASTVKMWVFEETVNGRKLTDIINNDHENVKYLPGHKLPENVVAMSNLSEAVQDADLLVFVIPHQFIHRICDEITGRVPKKALGITLIKGIDEGPEGLKLISDIIREKMGIDISVLMGANIANEVAAEKFCETTIGSKVMENGLLFKELLQTPNFRITVVDDADTVELCGALKNIVAVGAGFCDGLRCGDNTKAAVIRLGLMEMIAFARIFCKGQVSTATFLESCGVADLITTCYGGRNRRVAEAFARTGKTIEELEKEMLNGQKLQGPQTSAEVYRILKQKGLLDKFPLFTAVYQICYESRPVQEMLSCLQSHPEHT
